Results: US20130072468A1, “SUBSTITUTED PIPERAZINES AS CB1 ANTAGONISTS” (priority 2011, published 2013)
Some entries share one result that the patent states for a list of compounds.

The chains behind the UniProt entries cited, without tags or fusion partners.
UniProt P21554, whole entry: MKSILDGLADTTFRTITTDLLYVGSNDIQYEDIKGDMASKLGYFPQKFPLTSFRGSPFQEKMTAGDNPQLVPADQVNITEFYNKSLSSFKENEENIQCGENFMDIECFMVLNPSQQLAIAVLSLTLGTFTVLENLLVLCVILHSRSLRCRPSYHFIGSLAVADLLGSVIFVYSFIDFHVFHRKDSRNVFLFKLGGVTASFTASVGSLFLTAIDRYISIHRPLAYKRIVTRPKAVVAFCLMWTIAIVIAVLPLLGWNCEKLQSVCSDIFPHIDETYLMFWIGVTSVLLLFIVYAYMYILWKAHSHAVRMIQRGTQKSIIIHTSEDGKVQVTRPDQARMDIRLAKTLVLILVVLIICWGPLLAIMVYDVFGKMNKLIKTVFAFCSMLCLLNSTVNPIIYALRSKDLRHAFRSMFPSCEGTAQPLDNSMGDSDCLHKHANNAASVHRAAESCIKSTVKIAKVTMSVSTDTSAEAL

Target: T1, cannabinoid CB1 (Homo sapiens, UniProt P21554)
T1 construct: purchased
Assay: Competition binding assay for cannabinoid CB1 affinity (3H-CP55,940 displacement, membranes)
Conditions: competition binding vs 0.5 nM 3H-CP55,940; units stand inside the value; read-out: Ki values in the assay described above (range printed with mixed units nM to uM)
Procedure: Method for Evaluating Cannabinoid CB1 and CB affinity
Competition binding assays for cannabinoid CB1 and CB2 affinity were performed by incubating commercially purchased membranes prepared from cells expressing each receptor subtype (8 μg pro) with 0.5 nM ^3H-CP55,940, a non-selective cannabinoid agonist, along with concentrations of drug ranging from 0.0001-3 μM in Buffer A (5 mM MgCl2, 2.5 mM EDTA and […] BSA). Non-specific binding was defined in the presence of 10 μM CP55,940. For saturation studies, concentrations of ^3H-CP55,940 ranging from 0.1-5 nM were incubated with membranes in the presence and absence of 10 μM CP55,940. Assays were terminated after incubation for 1½ hours by rapid filtration onto 0.3 polyethylenamine treated GF/C filterplates using a BRANDEL cell harvester. […]
The dissociation constant (Kd) of ^3H-CP55,940 at the CB1 and CB2 receptor were determined by plotting specific binding at each concentration of radioligand, and analysis by non-linear regression. For competition studies, the concentration of each drug that inhibited 50 percent of ^3H-CP55,940 binding (IC50) was determined by non-linear regression analysis of the radioligand displacement curves. Affinity constants (Ki) were calculated using the equation derived by Cheng and Prusoff (1973), defined as: IC50/1+[conc. ligand/Kd].

Compound | Ki [nM]
N#Cc1ccc(N2CCN(Cc3ccccc3)C[C@H]2c2ccc(Cl)cc2)nc1 [Example 820b] | 100 to 1000
OC(CN1CCN(c2ccc(Cl)cc2Cl)[C@H](c2ccc(Cl)cc2)C1)c1nccs1 (single isomer, unassigned) [Example 873] | 100 to 1000
